The chains behind the UniProt entries cited, without tags or fusion partners.
UniProt Q6P6C2: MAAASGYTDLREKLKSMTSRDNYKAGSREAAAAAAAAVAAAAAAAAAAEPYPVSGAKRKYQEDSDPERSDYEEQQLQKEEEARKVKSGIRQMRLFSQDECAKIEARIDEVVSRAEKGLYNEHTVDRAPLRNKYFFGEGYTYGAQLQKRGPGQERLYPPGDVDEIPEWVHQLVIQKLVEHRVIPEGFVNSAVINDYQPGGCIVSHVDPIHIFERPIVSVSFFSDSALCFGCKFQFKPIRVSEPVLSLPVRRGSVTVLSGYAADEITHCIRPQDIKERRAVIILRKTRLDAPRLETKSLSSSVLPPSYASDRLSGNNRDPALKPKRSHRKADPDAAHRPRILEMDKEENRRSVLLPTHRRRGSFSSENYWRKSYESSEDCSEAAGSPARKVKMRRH
UniProt Q9H4Z3: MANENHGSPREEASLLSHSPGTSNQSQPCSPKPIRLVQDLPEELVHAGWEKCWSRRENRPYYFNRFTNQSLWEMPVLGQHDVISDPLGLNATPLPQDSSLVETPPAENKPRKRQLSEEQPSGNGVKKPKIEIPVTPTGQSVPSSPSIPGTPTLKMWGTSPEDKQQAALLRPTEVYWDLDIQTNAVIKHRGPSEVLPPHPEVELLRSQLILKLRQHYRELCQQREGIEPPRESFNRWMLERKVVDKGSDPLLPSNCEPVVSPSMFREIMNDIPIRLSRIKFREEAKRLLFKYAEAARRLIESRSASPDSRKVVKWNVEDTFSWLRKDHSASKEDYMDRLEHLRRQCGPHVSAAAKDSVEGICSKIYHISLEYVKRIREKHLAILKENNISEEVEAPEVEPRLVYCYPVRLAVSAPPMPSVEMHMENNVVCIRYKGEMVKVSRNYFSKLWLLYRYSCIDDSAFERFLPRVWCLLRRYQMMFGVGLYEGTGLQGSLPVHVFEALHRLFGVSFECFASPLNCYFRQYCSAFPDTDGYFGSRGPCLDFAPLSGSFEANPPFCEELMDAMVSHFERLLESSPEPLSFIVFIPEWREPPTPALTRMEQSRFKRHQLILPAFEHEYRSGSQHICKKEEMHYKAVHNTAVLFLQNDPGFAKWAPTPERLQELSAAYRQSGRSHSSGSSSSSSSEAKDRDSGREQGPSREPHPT

In PMC8565353:

B1: LAS1L (protein, UniProt Q9Y4W2 1-734)
chain: MSWESGAGPGLGSQGMDLVWSAWYGKCVKGKGSLPLSAHGIVVAWLSRAEWDQVTVYLFCDDHKLQRYALNRITVWRSRSGNELPLAVASTADLIRCKLLDVTGGLGTDELRLLYGMALVRFVNLISERKTKFAKVPLKCLAQEVNIPDWIVDLRHELTHKKMPHINDCRRGCYFVLDWLQKTYWCRQLENSLRETWELEEFREGIEEEDQEEDKNIVVDDITEQKPEPQDDGKSTESDVKADGDSKGSEEVDSHCKKALSHKELYERARELLVSYEEEQFTVLEKFRYLPKAIKAWNNPSPRVECVLAELKGVTCENREAVLDAFLDDGFLVPTFEQLAALQIEYEDGQTEVQRGEGTDPKSHKNVDLNDVLVPKPFSQFWQPLLRGLHSQNFTQALLERMLSELPALGISGIRPTYILRWTVELIVANTKTGRNARRFSAGQWEARRGWRLFNCSASLDWPRMVESCLGSPCWASPQLLRIIFKAMGQGLPDEEQEKLLRICSIYTQSGENSLVQEGSEASPIGKSPYTLDSLYWSVKPASSSFGSEAKAQQQEEQGSVNDVKEEEKEEKEVLPDQVEEEEENDDQEEEEEDEDDEDDEEEDRMEVGPFSTGQESPTAENARLLAQKRGALQGSAWQVSSEDVRWDTFPLGRMPGQTEDPAELMLENYDTMYLLDQPVLEQRLEPSTCKTDTLGLSCGVGSGNCSNSSSSNFEGLLWSQGQLHGLKTGLQLF
B2: TEX10 (protein, UniProt Q9NXF1 1-929)
chain: MTKKRKRQHDFQKVKLKVGKKKPKLQNATPTNFKTKTIHLPEQLKEDGTLPTNNRKLNIKDLLSQMHHYNAGVKQSALLGLKDLLSQYPFIIDAHLSNILSEVTAVFTDKDANVRLAAVQLLQFLAPKIRAEQISPFFPLVSAHLSSAMTHITEGIQEDSLKVLDILLEQYPALITGRSSILLKNFVELISHQQLSKGLINRDRSQSWILSVNPNRRLTSQQWRLKVLVRLSKFLQALADGSSRLRESEGLQEQKENPHATSNSIFINWKEHANDQQHIQVYENGGSQPNVSSQFRLRYLVGGLSGVDEGLSSTENLKGFIEIIIPLLIECWVEAVPPQLATPVGNGIEREPLQVMQQVLNIISLLWKLSKQQDETHKLESWLRKNYLIDFKHHFMSRFPYVLKEITKHKRKEPNKSIKHCTVLSNNIDHLLLNLTLSDIMVSLANASTLQKDCSWIEMIRKFVTETLEDGSRLNSKQLNRLLGVSWRLMQIQPNREDTETLIKAVYTLYQQRGLILPVRTLLLKFFSKIYQTEELRSCRFRYRSKVLSRWLAGLPLQLAHLGSRNPELSTQLIDIIHTAAARANKELLKSLQATALRIYDPQEGAVVVLPADSQQRLVQLVYFLPSLPADLLSRLSRCCIMGRLSSSLAAMLIGILHMRSSFSGWKYSAKDWLMSDVDYFSFLFSTLTGFSKEELTWLQSLRGVPHVIQTQLSPVLLYLTDLDQFLHHWDVTEAVFHSLLVIPARSQNFDILQSAISKHLVGLTVIPDSTAGCVFGVICKLLDHTCVVSETLLPFLASCCYSLLYFLLTIEKGEAEHLRKRDKLWGVCVSILALLPRVLRLMLQSLRVNRVGPEELPVVGQLLRLLLQHAPLRTHMLTNAILVQQIIKNITTLKSGSVQEQWLTDLHYCFNVYITGHPQGPSALATVY
B3: ZC3H14 (protein, UniProt Q6PJT7 1-736)
chain: MEIGTEISRKIRSAIKGKLQELGAYVDEELPDYIMVMVANKKSQDQMTEDLSLFLGNNTIRFTVWLHGVLDKLRSVTTEPSSLKSSDTNIFDSNVPSNKSNFSRGDERRHEAAVPPLAIPSARPEKRDSRVSTSSQESKTTNVRQTYDDGAATRLMSTVKPLREPAPSEDVIDIKPEPDDLIDEDLNFVQENPLSQKKPTVTLTYGSSRPSIEIYRPPASRNADSGVHLNRLQFQQQQNSIHAAKQLDMQSSWVYETGRLCEPEVLNSLEETYSPFFRNNSEKMSMEDENFRKRKLPVVSSVVKVKKFNHDGEEEEEDDDYGSRTGSISSSVSVPAKPERRPSLPPSKQANKNLILKAISEAQESVTKTTNYSTVPQKQTLPVAPRTRTSQEELLAEVVQGQSRTPRISPPIKEEETKGDSVEKNQGTQQRQLLSRLQIDPVMAETLQMSQDYYDMESMVHADTRSFILKKPKLSEEVVVAPNQESGMKTADSLRVLSGHLMQTRDLVQPDKPASPKFIVTLDGVPSPPGYMSDQEEDMCFEGMKPVNQTAASNKGLRGLLHPQQLHLLSRQLEDPNGSFSNAEMSELSVAQKPEKLLERCKYWPACKNGDECAYHHPISPCKAFPNCKFAEKCLFVHPNCKYDAKCTKPDCPFTHVSRRIPVLSPKPAVAPPAPPSSSQLCRYFPACKKMECPFYHPKHCRFNTQCTRPDCTFYHPTINVPPRHALKWIRPQTSE
B4: ICE2 (protein, UniProt Q659A1 1-982)
chain: MSSKMVISEPGLNWDISPKNGLKTFFSRENYKDHSMAPSLKELRVLSNRRIGENLNASASSVENEPAVSSATQAKEKVKTTIGMVLLPKPRVPYPRFSRFSQREQRSYVDLLVKYAKIPANSKAVGINKNDYLQYLDMKKHVNEEVTEFLKFLQNSAKKCAQDYNMLSDDARLFTEKILRACIEQVKKYSEFYTLHEVTSLMGFFPFRVEMGLKLEKTLLALGSVKYVKTVFPSMPIKLQLSKDDIATIETSEQTAEAMHYDISKDPNAEKLVSRYHPQIALTSQSLFTLLNNHGPTYKEQWEIPVCIQVIPVAGSKPVKVIYINSPLPQKKMTMRERNQIFHEVPLKFMMSKNTSVPVSAVFMDKPEEFISEMDMSCEVNECRKIESLENLYLDFDDDVTELETFGVTTTKVSKSPSPASTSTVPNMTDAPTAPKAGTTTVAPSAPDISANSRSLSQILMEQLQKEKQLVTGMDGGPEECKNKDDQGFESCEKVSNSDKPLIQDSDLKTSDALQLENSQEIETSNKNDMTIDILHADGERPNVLENLDNSKEKTVGSEAAKTEDTVLCSSDTDEECLIIDTECKNNSDGKTAVVGSNLSSRPASPNSSSGQASVGNQTNTACSPEESCVLKKPIKRVYKKFDPVGEILKMQDELLKPISRKVPELPLMNLENSKQPSVSEQLSGPSDSSSWPKSGWPSAFQKPKGRLPYELQDYVEDTSEYLAPQEGNFVYKLFSLQDLLLLVRCSVQRIETRPRSKKRKKIRRQFPVYVLPKVEYQACYGVEALTESELCRLWTESLLHSNSSFYVGHIDAFTSKLFLLEEITSEELKEKLSALKISNLFNILQHILKKLSSLQEGSYLLSHAAEDSSLLIYKASDGKVTRTAYNLYKTHCGLPGVPSSLSVPWVPLDPSLLLPYHIHHGRIPCTFPPKSLDTTTQQKIGGTRMPTRSHRNPVSMETKSSCLPAQQVETEGVAPHKRKIT
B5: CMTR1 (enzyme, UniProt Q8N1G2 1-835)
chain: MKRRTDPECTAPIKKQKKRVAELALSLSSTSDDEPPSSVSHGAKASTTSLSGSDSETEGKQHSSDSFDDAFKADSLVEGTSSRYSMYNSVSQKLMAKMGFREGEGLGKYSQGRKDIVEASSQKGRRGLGLTLRGFDQELNVDWRDEPEPSACEQVSWFPECTTEIPDTQEMSDWMVVGKRKMIIEDETEFCGEELLHSVLQCKSVFDVLDGEEMRRARTRANPYEMIRGVFFLNRAAMKMANMDFVFDRMFTNPRDSYGKPLVKDREAELLYFADVCAGPGGFSEYVLWRKKWHAKGFGMTLKGPNDFKLEDFYSASSELFEPYYGEGGIDGDGDITRPENISAFRNFVLDNTDRKGVHFLMADGGFSVEGQENLQEILSKQLLLCQFLMALSIVRTGGHFICKTFDLFTPFSVGLVYLLYCCFERVCLFKPITSRPANSERYVVCKGLKVGIDDVRDYLFAVNIKLNQLRNTDSDVNLVVPLEVIKGDHEFTDYMIRSNESHCSLQIKALAKIHAFVQDTTLSEPRQAEIRKECLRLWGIPDQARVAPSSSDPKSKFFELIQGTEIDIFSYKPTLLTSKTLEKIRPVFDYRCMVSGSEQKFLIGLGKSQIYTWDGRQSDRWIKLDLKTELPRDTLLSVEIVHELKGEGKAQRKISAIHILDVLVLNGTDVREQHFNQRIQLAEKFVKAVSKPSRPDMNPIRVKEVYRLEEMEKIFVRLEMKIIKGSSGTPKLSYTGRDDRHFVPMGLYIVRTVNEPWTMGFSKSFKKKFFYNKKTKDSTFDLPADSIAPFHICYYGRLFWEWGDGIRVHDSQKPQDQDKLSKEDVLSFIQMHRA
B6: WAC (protein, UniProt Q9BTA9 1-647)
chain: MVMYARKQQRLSDGCHDRRGDSQPYQALKYSSKSHPSSGDHRHEKMRDAGDPSPPNKMLRRSDSPENKYSDSTGHSKAKNVHTHRVRERDGGTSYSPQENSHNHSALHSSNSHSSNPSNNPSKTSDAPYDSADDWSEHISSSGKKYYYNCRTEVSQWEKPKEWLEREQRQKEANKMAVNSFPKDRDYRREVMQATATSGFASGMEDKHSSDASSLLPQNILSQTSRHNDRDYRLPRAETHSSSTPVQHPIKPVVHPTATPSTVPSSPFTLQSDHQPKKSFDANGASTLSKLPTPTSSVPAQKTERKESTSGDKPVSHSCTTPSTSSASGLNPTSAPPTSASAVPVSPVPQSPIPPLLQDPNLLRQLLPALQATLQLNNSNVDISKINEVLTAAVTQASLQSIIHKFLTAGPSAFNITSLISQAAQLSTQAQPSNQSPMSLTSDASSPRSYVSPRISTPQTNTVPIKPLISTPPVSSQPKVSTPVVKQGPVSQSATQQPVTADKQQGHEPVSPRSLQRSSSQRSPSPGPNHTSNSSNASNATVVPQNSSARSTCSLTPALAAHFSENLIKHVQGWPADHAEKQASRLREEAHNMGTIHMSEICTELKNLRSLVRVCEIQATLREQRILFLRQQIKELEKLKNQNSFMV

The binders below were run against ALKBH5-Strep II-HA (human) (UniProt Q6P6C2) (assay: affinity purification with mass spectrometry; Strep II-tagged bait captured on StrepTactinXT beads from 293T total lysate, 4 h at 4°C, with RNase inhibitor (-RNase A) or with 2 μg/ml RNase A; washes with 350 mM KCl; LC-MS/MS; against Strep II-eGFP control).

binding, binds:
B1, B2, B3

These binders were tested against ALKBH5, BirA* fusion (human) (UniProt Q6P6C2) (assay: proximity labelling; BioID: BirA*-fused bait induced with 200 ng/ml dox in stable 293T cells, 50 μM biotin for 24 h, streptavidin bead purification of biotinylated proteins, LC-MS/MS; hits filtered by Limma (>4-fold, adjusted P < 0.01) and SAINT (score >0.74) against BirA* and NLS-BirA* controls).

binding, binds:
B1, B2, B3

Each binder was assayed against MAC-PCIF1 (HA-Strep II-BirA*-PCIF1) (human) (UniProt Q9H4Z3) in the same assay as above.

binding, binds:
B4, B5, B6

Results are given in words; binding and its absence hold for the method and conditions named. In cells and extracts the contact can be indirect. A yes stands for co-enrichment or nearness to the bait. Other partners may have been found.
